Experimental data published in paper doi:10.1101/2025.02.07.636160.
No constants are given. Whether binding was seen depends on the method and setting. Binding seen in cells or lysates may run through a third protein. Some binding calls cover weakened binding; strength is not graded here. For some assays here: Where a sequence is shown, tags or fusion partners need not be part of it. One block for each molecule: values may come before it.

Amino acid sequences for entries named in this document (tags omitted).
UniProt Q8BVE8: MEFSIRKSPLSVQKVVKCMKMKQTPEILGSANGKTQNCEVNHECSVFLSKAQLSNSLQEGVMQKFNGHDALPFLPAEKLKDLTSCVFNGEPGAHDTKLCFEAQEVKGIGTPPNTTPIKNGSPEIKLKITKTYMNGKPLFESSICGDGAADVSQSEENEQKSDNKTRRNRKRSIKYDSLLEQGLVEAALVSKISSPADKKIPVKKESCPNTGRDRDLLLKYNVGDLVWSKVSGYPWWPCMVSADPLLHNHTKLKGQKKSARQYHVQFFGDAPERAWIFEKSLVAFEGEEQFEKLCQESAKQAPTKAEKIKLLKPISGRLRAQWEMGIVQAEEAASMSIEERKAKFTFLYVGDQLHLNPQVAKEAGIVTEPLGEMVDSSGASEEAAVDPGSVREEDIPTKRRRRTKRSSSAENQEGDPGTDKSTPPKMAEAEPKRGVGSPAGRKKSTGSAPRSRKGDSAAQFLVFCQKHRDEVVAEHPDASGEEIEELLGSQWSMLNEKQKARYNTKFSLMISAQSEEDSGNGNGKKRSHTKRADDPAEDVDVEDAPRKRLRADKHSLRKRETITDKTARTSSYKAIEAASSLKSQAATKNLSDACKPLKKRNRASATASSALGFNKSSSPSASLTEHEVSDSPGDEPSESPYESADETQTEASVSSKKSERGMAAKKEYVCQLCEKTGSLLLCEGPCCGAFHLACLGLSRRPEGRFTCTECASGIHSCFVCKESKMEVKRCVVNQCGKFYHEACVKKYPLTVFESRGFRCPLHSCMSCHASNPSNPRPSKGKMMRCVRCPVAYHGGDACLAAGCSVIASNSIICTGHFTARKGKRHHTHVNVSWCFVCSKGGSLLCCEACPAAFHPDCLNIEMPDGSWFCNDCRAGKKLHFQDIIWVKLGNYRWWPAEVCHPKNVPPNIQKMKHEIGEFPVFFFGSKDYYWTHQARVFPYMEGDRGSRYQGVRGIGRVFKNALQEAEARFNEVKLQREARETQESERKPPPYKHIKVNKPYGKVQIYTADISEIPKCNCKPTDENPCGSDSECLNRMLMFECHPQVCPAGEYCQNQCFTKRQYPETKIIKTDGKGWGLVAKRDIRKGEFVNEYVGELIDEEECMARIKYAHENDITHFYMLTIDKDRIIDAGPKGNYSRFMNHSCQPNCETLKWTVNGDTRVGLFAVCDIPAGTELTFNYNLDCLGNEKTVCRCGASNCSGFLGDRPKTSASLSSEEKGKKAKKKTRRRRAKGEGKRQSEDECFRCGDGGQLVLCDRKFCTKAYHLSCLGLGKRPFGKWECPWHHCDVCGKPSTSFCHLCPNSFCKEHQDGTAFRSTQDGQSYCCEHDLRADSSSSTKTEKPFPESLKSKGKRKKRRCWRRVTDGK
UniProt P43274: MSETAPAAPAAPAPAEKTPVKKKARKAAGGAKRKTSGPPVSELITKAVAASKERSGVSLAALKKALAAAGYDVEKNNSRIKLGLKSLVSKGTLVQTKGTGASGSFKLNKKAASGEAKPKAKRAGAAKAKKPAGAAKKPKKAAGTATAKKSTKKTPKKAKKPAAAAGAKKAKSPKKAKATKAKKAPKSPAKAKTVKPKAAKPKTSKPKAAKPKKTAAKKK

Columns and labels:
[1] = biological target: mouse NSD2, GFP-tagged (Nsd2-GFP construct for in vitro transfection) (mouse) (UniProt Q8BVE8); assay: co-IP
[2] = biological target: T1, Drosophila Nsd, GFP-tagged (nsd-GFP construct for in vitro transfection) (Drosophila) (UniProt Q8MT36); assay: co-IP
T1 sequence: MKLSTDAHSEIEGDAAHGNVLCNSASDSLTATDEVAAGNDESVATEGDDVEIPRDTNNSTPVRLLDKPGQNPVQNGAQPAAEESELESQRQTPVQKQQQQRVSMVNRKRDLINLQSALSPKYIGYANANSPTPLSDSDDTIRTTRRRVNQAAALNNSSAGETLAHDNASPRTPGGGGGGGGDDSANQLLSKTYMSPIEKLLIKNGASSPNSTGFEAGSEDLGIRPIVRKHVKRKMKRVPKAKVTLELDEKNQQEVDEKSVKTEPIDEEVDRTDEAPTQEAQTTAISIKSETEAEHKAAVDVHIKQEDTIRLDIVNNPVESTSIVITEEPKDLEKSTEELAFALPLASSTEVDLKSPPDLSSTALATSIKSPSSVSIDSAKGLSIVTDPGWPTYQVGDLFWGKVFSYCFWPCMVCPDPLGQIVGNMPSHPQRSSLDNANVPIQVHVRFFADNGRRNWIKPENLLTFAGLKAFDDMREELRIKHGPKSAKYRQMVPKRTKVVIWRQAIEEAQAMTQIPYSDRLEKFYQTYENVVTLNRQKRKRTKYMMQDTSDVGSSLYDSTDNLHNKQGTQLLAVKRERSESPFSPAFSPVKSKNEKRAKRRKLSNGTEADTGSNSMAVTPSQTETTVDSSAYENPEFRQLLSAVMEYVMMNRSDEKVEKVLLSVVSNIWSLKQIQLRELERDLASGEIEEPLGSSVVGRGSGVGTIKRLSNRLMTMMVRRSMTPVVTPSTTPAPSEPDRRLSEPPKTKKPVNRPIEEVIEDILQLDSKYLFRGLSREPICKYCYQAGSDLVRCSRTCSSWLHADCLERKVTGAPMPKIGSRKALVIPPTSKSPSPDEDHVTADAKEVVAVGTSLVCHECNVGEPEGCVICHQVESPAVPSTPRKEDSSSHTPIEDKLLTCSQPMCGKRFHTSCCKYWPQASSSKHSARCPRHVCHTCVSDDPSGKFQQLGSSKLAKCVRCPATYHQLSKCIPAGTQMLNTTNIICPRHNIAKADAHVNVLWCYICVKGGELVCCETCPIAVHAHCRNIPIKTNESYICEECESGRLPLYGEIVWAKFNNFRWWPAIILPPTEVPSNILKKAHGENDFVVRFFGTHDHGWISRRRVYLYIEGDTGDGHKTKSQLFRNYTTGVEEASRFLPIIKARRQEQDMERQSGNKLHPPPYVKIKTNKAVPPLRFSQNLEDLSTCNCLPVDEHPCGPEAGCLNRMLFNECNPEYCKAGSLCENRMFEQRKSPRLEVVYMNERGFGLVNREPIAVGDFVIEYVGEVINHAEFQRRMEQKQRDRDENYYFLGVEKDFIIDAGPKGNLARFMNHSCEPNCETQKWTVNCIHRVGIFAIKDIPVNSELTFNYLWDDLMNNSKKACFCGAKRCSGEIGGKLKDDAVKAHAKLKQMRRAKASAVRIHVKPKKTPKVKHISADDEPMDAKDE

- binding [1]: no binding
Molecule: mouse linker histone HIST1H1E, FLAG-tagged (Hist1h1e-FLAG) (from UniProt P43274 1-219)

- binding [2]: binds
B1: Drosophila linker histone H1 (His1), FLAG-tagged (his1-FLAG construct for in vitro transfection) (protein, UniProt P02255 1-256)
chain: MSDSAVATSASPVAAPPATVEKKVVQKKASGSAGTKAKKASATPSHPPTQQMVDASIKNLKERGGSSLLAIKKYITATYKCDAQKLAPFIKKYLKSAVVNGKLIQTKGKGASGSFKLSASAKKEKDPKAKSKVLSAEKKVQSKKVASKKIGVSSKKTAVGAADKKPKAKKAVATKKTAENKKTEKAKAKDAKKTGIIKSKPAATKAKVTAAKPKAVVAKASKAKPAVSAKPKKTVKKASVSATAKKPKAKTTAAKK
